PubChem BioAssay AID504764 – Drosophila RNAi Screening Center, 2011
The deposit covers about 22,000 reagents; below is a random part of those that have a named target and a result. Of all reagents, 403 (1.9%) were called active. 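Unnormalised raw counts per well; ratio z-scores behind the hit calls and whether each hit raises or lowers signal are not deposited.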 The numbers tell different reagents against one gene apart. A plus sign joins genes that one reagent is predicted to hit. No sequences are given here. Not stated in the record: the amount of reagent.

Assay: 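Genes whose knock-down alters Notch-dependent transcription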 (primary screen)
System: Drosophila Kc167 cells
Knock-down reagent: long dsRNA against Drosophila genes
Time to read-out: about 5 days (4 days dsRNA, then 24 h after transfection)
Challenge: transfection of constitutively active membrane-tethered Notch lacking the extracellular domain, read 24 h later
Measurement: 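Light from a Notch-responsive E(spl)m3 luciferase reporter under active Notch, with control-promoter and no-Notch reporter wells to normalise; raw counts from paired wells a and b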
Reading the numbers: induced reporter light, run 1, well a and induced reporter light, run 1, well b: higher = more light from the Notch target reporter with active Notch; control promoter light, run 1, well a and control promoter light, run 1, well b: higher = more light from the viral control promoter (cell number, transfection, viability); uninduced reporter light, run 1, well a: higher = more light from the Notch target reporter without active Notch
Hit rule: 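Wells with low control signal or poorly matching duplicates excluded; duplicates averaged; per source plate, z beyond ±2 for induced/control log2 ratio or beyond ±1.8 for induced/uninduced marks a hit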
Meaning of the calls: active = modifier hit (raised or lowered Notch signal); inactive = not a hit

gene knocked down	reagent	induced reporter light, run 1, well a	induced reporter light, run 1, well b	control promoter light, run 1, well a	control promoter light, run 1, well b	uninduced reporter light, run 1, well a	activity call
Acox3	1	1.20e5	1.36e5	2.28e5	2.09e5	8105	active
CG13078	1	43380	43775	47150	49205	4015	inactive
Rbf2	1	2.09e5	2.00e5	2.02e5	2.17e5	16540	inactive
CG14022	1	1.28e5	1.10e5	1.23e5	1.58e5	7460	inactive
mRpL20	1	1.40e5	1.20e5	1.89e5	1.72e5	6595	inactive
CG17687	1	1.20e5	1.09e5	1.35e5	1.45e5	5615	inactive
CG32986	1	1.07e5	1.30e5	93125	95545	19030	inactive
CG14505	1	1.33e5	96695	1.54e5	1.52e5	10415	inactive
Atg8a	1	1.02e5	94495	2.19e5	2.35e5	8720	inactive
msd1	1	1.08e5	1.25e5	2.03e5	1.85e5	5645	inactive
CG15330	1	1.34e5	1.32e5	2.98e5	2.28e5	9160	inactive
CG33288	1	2.37e5	1.71e5	2.27e5	2.47e5	13705	inactive
CG17726	1	1.95e5	1.69e5	2.58e5	2.83e5	13160	inactive
tex	1	28820	42965	31095	33280	2875	inactive
CG10126	1	1.35e5	1.67e5	98090	94835	10845	inactive
sqz	1	1.50e5	1.56e5	1.33e5	1.53e5	12280	inactive
Chc	1	1.47e5	1.36e5	1.70e5	1.67e5	9295	inactive
Dnaaf3	1	1.17e5	82585	97935	69825	7805	inactive
CG14417	1	1.33e5	1.28e5	2.41e5	2.54e5	10350	inactive
Fdx1	1	2.35e5	1.76e5	2.62e5	2.28e5	13240	inactive
Sos	1	1.06e5	1.25e5	71625	69935	8815	active
ais	1	1.45e5	1.25e5	95330	86805	11115	inactive
nanos	1	98220	85595	90105	81360	9595	inactive
eIF5	1	41175	43355	60655	55315	2475	active
Obp8a	1	1.40e5	1.08e5	2.16e5	2.17e5	7905	inactive
ERp60	1	1.74e5	1.57e5	2.03e5	2.36e5	16050	active
CG10543	1	6445	5670	6792	6405	1140	inactive
CG34007	1	76960	81735	75075	87425	9535	inactive
CG42613	1	20992	19140	26090	25250	4215	inactive
CG42613	2	2.04e5	1.91e5	2.52e5	2.68e5	17190	inactive
CG42613	3	2.51e5	2.71e5	3.15e5	3.16e5	16790	inactive
CG15084	1	67230	69815	1.42e5	1.85e5	6520	inactive
Fbp1	1	1.40e5	1.50e5	1.47e5	99120	6885	active
Usf	1	1.18e5	1.11e5	1.62e5	2.13e5	8280	inactive
CG12279	1	51075	50580	60745	49625	2870	inactive
TotE	1						inactive
CG7653	1	1.33e5	1.32e5	1.60e5	1.93e5	10100	inactive
pncr004:X (retired record)	1	82145	95820	97605	99500	7432	inactive
Prosbeta3	1	20478	17000	13990	15655	1478	inactive
Acp53C14a	1	72840	52715	53840	58150	6140	inactive
CG5359	1	90130	1.23e5	1.32e5	1.23e5	8985	inactive

Next part, starting with the last 9 of the part before.
gene knocked down	reagent	induced reporter light, run 1, well a	induced reporter light, run 1, well b	control promoter light, run 1, well a	control promoter light, run 1, well b	uninduced reporter light, run 1, well a	activity call
Fbp1	1	1.40e5	1.50e5	1.47e5	99120	6885	active
Usf	1	1.18e5	1.11e5	1.62e5	2.13e5	8280	inactive
CG12279	1	51075	50580	60745	49625	2870	inactive
TotE	1						inactive
CG7653	1	1.33e5	1.32e5	1.60e5	1.93e5	10100	inactive
pncr004:X (retired record)	1	82145	95820	97605	99500	7432	inactive
Prosbeta3	1	20478	17000	13990	15655	1478	inactive
Acp53C14a	1	72840	52715	53840	58150	6140	inactive
CG5359	1	90130	1.23e5	1.32e5	1.23e5	8985	inactive
Act57B	1	2.18e5	2.07e5	1.80e5	1.94e5	13050	inactive
Ype	1	1.09e5	1.16e5	1.33e5	1.20e5	8085	inactive
Mp20	1	93275	1.18e5	1.20e5	1.05e5	9255	inactive
Rtc1	1	2.01e5	1.74e5	2.66e5	2.95e5	13630	inactive
flfl	1	93420	80860	54340	40015	4870	inactive
CG7084	1	1.50e5	1.52e5	2.11e5	1.78e5	16400	inactive
CG10097 + CG10096	1	1.15e5	1.51e5	1.01e5	91640	11145	inactive
CG10097 + CG10096	2	78240	79490	79655	51925	4940	inactive
CG13590	1	1.60e5	1.47e5	1.37e5	1.32e5	7860	active
Rfk	1	1.80e5	1.39e5	1.27e5	98650	12120	inactive
TER94	1	44345	47160	36180	31355	4275	inactive
aln	1	1.40e5	1.46e5	2.19e5	2.41e5	7020	inactive
Cad96Ca	1	1.44e5	1.58e5	1.99e5	2.23e5	13805	inactive
Cad96Ca	2	1.66e5	1.37e5	2.09e5	2.18e5	13105	inactive
CG10051	1	81045	86945	96380	91470	5755	inactive
robo3	1	1.19e5	98205	1.32e5	70165	10540	inactive
robo3	2	37760	41920	25305	14385	6740	inactive
robo3	3	1.07e5	1.08e5	95190	50040	10575	inactive
Orc6	1	1.73e5	1.64e5	2.09e5	1.97e5	16200	inactive
CG9986	1	1.63e5	1.58e5	2.25e5	2.07e5	12045	inactive
grsm	1	3.11e5	2.79e5	2.59e5	2.66e5	21350	inactive
grsm	2	3.30e5	3.34e5	2.61e5	3.08e5	23395	inactive
CG7251	1	1.84e5	2.01e5	1.81e5	1.57e5	15880	inactive
